The results in this text go back to article PMC9242521.

The experiment has as its target ΔEPIYA-CagA deletion mutant Δ1 (lacks one EPIYA motif) (Helicobacter pylori (strain not stated)). The experiment in a line: co-IP; AGS cells transfected with plasmids for wild type CagA, ΔEPIYA-CagA mutants or PR CagA; lysates immunoprecipitated with CagA antibody, blots for ULF, SIVA1 and MKRN1.

These are yes or no findings as the source states them, for the method shown. In cells and extracts the contact can be indirect. Binding calls can cover weak binding; strength is not graded here.

B1: SIVA1 (endogenous) (protein, UniProt O15304 1-175)
chain: MPKRSCPFADVAPLQLKVRVSQRELSRGVCAERYSQEVFEKTKRLLFLGAQAYLDHVWDEGCAVVHLPESPKPGPTGAPRAARGQMLIGPDGRLIRSLGQASEADPSGVASIACSSCVRAVDGKAVCGQCERALCGQCVRTCWGCGSVACTLCGLVDCSDMYEKVLCTSCAMFET
Regarding B1, the binding entry is listed as “binds”.
